# Reference: PubChem BioAssay AID1471 (National Center for Advancing Translational Sciences (NCATS), 2008)
# Hit rate of the full screen: of about 230,000 compounds, about 310 (0.13%) were called active. About 2% were inconclusive and are not listed. Calls come from the whole dose curve; as a rule, active = well fitted activation curve with a large enough effect; inconclusive = small, poorly fitted or top-dose-only effect; inactive = no such curve, though single readings can be large or run the other way. The entries are a selection whose mix differs from that of the whole data set. Entries without a call were filed so in the source. Residues, ends and D or L forms follow the SMILES beside them. *: point of attachment. Cbz = O=C(OCc1ccccc1)*; CH2F = FC*
# Assay: qHTS Multiplex Assay to Identify Dual Action Probes in a Cell Model of Huntington: Cytoprotection (ATP); note: nearly all actives have a fitted effect of over 45% in size;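 for cytoprotection (ATP increase): toxic huntingtin expression switched on by the ecdysone agonist tebufenozide; % of control where 0% means no effect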
# Settings: PC12 HTT-Q103 induced, ATP luminescence, 40 h; cytoprotection (ATP increase): at 56.4 µM (top of the series) unless noted
# Outline: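 Compounds were screened for protection of PC12 cells against cell death after tebufenozide induction (100 nM final) of mutant Huntingtin exon 1 (Q103) fused to GFP.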
# Potency is the fitted concentration of half-maximal effect.
Compound,cytoprotection (ATP increase),Potency
C[C@@H]1CC[C@]2(C(=O)O)CC[C@]3(C)C(=CCC4[C@@]5(C)C[C@@H](O)[C@H](O)[C@@](C)(CO)C5CC[C@]43C)C2[C@H]1C (some centres not stated),-252%,
COC(=O)C(C)Sc1nc2c(c(=O)n(C)c(=O)n2C)n1Cc1cccc(C)c1 (configuration not stated),214% [at 10 µM],
COc1cc2nc(N(C)CCCNC(=O)C3CCCO3)nc(N)c2cc1OC (configuration not stated),-31.1%,
COc1cccc(-c2cc(=O)c3cc(NC(=O)c4ccc(N(C)C)cc4)ccc3[nH]2)c1,-290%,
Cc1cc2oc(=O)cc(-c3ccccc3)c2c(C)c1-c1cccc(N)c1,-66.3%,
O=[N+]([O-])c1cnc2ccccn12,,active: 3.98 µM
NCCCCN=C(N)N,-33.9%,
CC1(C)[C@H](C(=O)O)N2C(=O)C[C@H]2S1(=O)=O,-50.6%,
COc1cc2c(cc1OC)C1(Nc3c-2c(C)nn3-c2ccccc2)C(=O)Nc2ccccc21 (configuration not stated),,active: 3.55 µM
COc1cc(-c2nc3cnccn3c2Nc2ccc3c(c2)OCCO3)ccc1O,270% [at 10 µM],
CC(OC(=O)CCc1nc2ccccc2c(=O)[nH]1)C(=O)c1ccc(Br)cc1 (configuration not stated),199% [at 10 µM],
COc1cccc(NC(=S)N2CCN(Cc3ccccc3)CC2)c1,223% [at 10 µM],
Cc1cccc(C(=O)N2CCC(=O)N([C@H](COCc3ccc(Cl)cc3)Cc3ccccc3)CC2)c1,-84.2%,
O=C(/C=C/c1ccccc1)NC(NC(=S)Nc1cccc2cccnc12)C(Cl)(Cl)Cl (configuration not stated),-107%,
CC(=O)[C@H]1CC[C@H]2C3CC=C4C[C@@H](O)CC[C@]4(C)C3CC[C@]12C (some centres not stated),-40.2%,
CC(=O)OCC(=O)C1CCC2C3CC=C4CC(O)CC[C@@]4(C)C3CC[C@]12C (some centres not stated),-36.7%,
Cc1ccc(Nc2nc(CSc3nnc(-c4ccncc4)n3-c3ccccc3C)cs2)cc1,147% [at 10 µM],
COC(=O)N[C@H](C[N+](=O)[O-])c1cccc(C)c1,-43%,
Cc1nc2ccccc2n1C(=O)c1ccccc1[N+](=O)[O-],241% [at 10 µM],
COC(=O)[C@@]1(Cc2ccc(OC)cc2)[C@H]2c3cc(C(=O)N4CCCC4)n(Cc4ccc(Cl)c(C(F)(F)F)c4)c3C[C@H]2CN1C(=O)c1ccccc1,,active: 10 µM
COc1ccc(NS(=O)(=O)c2ccc(N/N=C/c3ccc(N4CCOCC4)cc3)c([N+](=O)[O-])c2)cc1,141% [at 10 µM],
COC(=O)[C@H](Cc1ccccc1)NC(=O)O[C@H]1C(=O)c2cc(OC)ccc2O[C@@H]1c1ccc(OC)c(Br)c1,24.3%,

# Sorted by length of the SMILES (ascending): some entries from above
Compound,cytoprotection (ATP increase),Potency
Cc1nc2ccccc2n1C(=O)c1ccccc1[N+](=O)[O-],241% [at 10 µM],
Cc1ccc(Nc2nc(CSc3nnc(-c4ccncc4)n3-c3ccccc3C)cs2)cc1,147% [at 10 µM],
CC(=O)[C@H]1CC[C@H]2C3CC=C4C[C@@H](O)CC[C@]4(C)C3CC[C@]12C (some centres not stated),-40.2%,
C[C@@H]1CC[C@]2(C(=O)O)CC[C@]3(C)C(=CCC4[C@@]5(C)C[C@@H](O)[C@H](O)[C@@](C)(CO)C5CC[C@]43C)C2[C@H]1C (some centres not stated),-252%,
COC(=O)[C@@]1(Cc2ccc(OC)cc2)[C@H]2c3cc(C(=O)N4CCCC4)n(Cc4ccc(Cl)c(C(F)(F)F)c4)c3C[C@H]2CN1C(=O)c1ccccc1,,active: 10 µM

# Later entries:

Compound,cytoprotection (ATP increase),Potency
Fc1ccc2nc(Nc3nc4c(F)cc(F)cc4s3)sc2c1,230% [at 10 µM],
CCN(CC)CCNC(=O)CSc1c2c(nc3cc(Cl)ccc13)CCCC2,-150%,
Cc1nnc(SCC2=C(C(=O)O)N3C(=O)C(NC(=O)Cn4cnnn4)[C@@H]3SC2)s1 (some centres not stated),-35.1%,
O=C(c1ccncc1)N(c1ccc2oc3c(c2c1)CCCC3)S(=O)(=O)c1cccc([N+](=O)[O-])c1,135% [at 10 µM],
COC(=O)C[C@H](NC(=O)[C@H](C)NC(=O)[C@@H](NC(=O)OCc1ccccc1)C(C)C)C(=O)CF (Cbz-Val-Ala-Asp(OMe)-CH2F),89.7%,
C=Cc1c(C)c2cc3[nH]c(cc4nc(cc5nc(cc1[nH]2)C(C)=C5CCC(=O)O)C(CCC(=O)O)=C4C)c(C)c3C=C,-77.1%,
COc1ccc(/C=N/Nc2ncc(Br)cn2)c(OC)c1,,active: 3.55 µM
CCCCN(C(=O)/C=C/c1ccco1)c1c(N)n(CCC)c(=O)[nH]c1=O,201% [at 10 µM],
Cn1c(N)c(C(=O)COC(=O)c2ccc(Cl)nc2)c(=O)n(C)c1=O,,active: 3.16 µM
OCc1ccccc1O[C@H]1OC(CO)C(O)C(O)C1O (some centres not stated),-9.91%,
CCN(C(=O)COC(=O)c1ccc(Cl)nc1)C1CCS(=O)(=O)C1 (configuration not stated),-32.2%,
COCCn1nc2cc(C(=O)NCc3cc(C(F)(F)F)cc(C(F)(F)F)c3)ccc2c1OC,,active: 0.708 µM
O=C(c1nc2nc(-c3ccccc3)cc(C(F)(F)F)n2n1)N1CCOCC1,328% [at 10 µM],
c1cnc2c(-c3nccc4c3[nH]c3ccccc34)cccc2c1,-18.7%,
Cc1cc2oc(=O)cc(-c3ccccc3)c2c(C)c1-c1ccc(O)cc1,63.2%,
C=C(C(C)=O)C(O)c1ccc([N+](=O)[O-])cc1 (configuration not stated),-361%,
Cc1cc(NC(=O)c2ccc(S(=O)(=O)N(C)CC3CCCO3)cc2)no1 (configuration not stated),-40.8%,
O=C1OCCN1C(=O)[C@H]1[C@H](c2ccc(F)cc2)C(c2ccc(F)cc2)=NN1c1ccccc1,-96.4%,
O=C(C[n+]1ccc(Cc2ccccc2)cc1)Nc1ccc([N+](=O)[O-])cc1Cl,387% [at 10 µM],
C[C@@](N)(Cc1ccc(O)c(O)c1)C(=O)O,-47%,
CCOC(=O)c1c(NC(=O)C2=C(C)NC(=S)NC2c2ccc(F)cc2)sc(C)c1C (configuration not stated),212% [at 10 µM],
COC(=O)c1[nH]c(=O)c2ccccc2c1O,335% [at 10 µM],

Compound,cytoprotection (ATP increase),Potency
CCN(C(=O)CSc1nc2cc(Cl)ccc2c(=O)n1Cc1ccco1)C1CCS(=O)(=O)C1 (configuration not stated),,active: 2.82 µM
Cn1cnc2c1c(=O)[nH]c(=O)n2C,-41.1%,
COCC1=C2c3ccccc3[C@H](C[N+](=O)[O-])C(C(=O)OC)(C(=O)OC)CC2C2C(=O)N(c3ccccc3)C(=O)C2C1 (some centres not stated),28.3%,
CC(C)OC(=O)[C@@H]1CC[C@H](C)[C@@H](CCC[C@@H]2CC=C[C@H](CC#N)O2)O1,-33.5%,
CC(=O)N[C@H](Cc1c[nH]c2ccccc12)C(N)=O,-34%,
C=C1C(=O)C23C(O)C1CCC2[C@]12COC3(O)C(O)C1C(C)(C)CC[C@H]2O (some centres not stated),-338%,
CCC(=O)OC1(C)C(=O)C=C2C=C(c3ccc(C#N)cc3)OC=C2C1=O (configuration not stated),-32.1%,
O=S(=O)(c1cccc(S(=O)(=O)N2CCN(c3ncccn3)CC2)c1)N1CCOCC1,311% [at 10 µM],
OC[C@@H]1[C@@H](c2ccc(F)cc2)C(c2ccccc2)=NN1c1ccccc1,-233%,
Cc1csc(NC(=O)C2CC(=O)N(Cc3ccco3)C2)n1 (configuration not stated),,active: 1.12 µM
NC(=O)COC(=O)CCSc1ccc(Cl)cc1,,active: 14.1 µM
Clc1ccc(N=c2ssnc2Cl)cc1,322% [at 10 µM],
CC[C@H](C)[C@@H](NC(=O)O[C@H]1C(=O)c2ccc(OC)cc2O[C@@H]1c1ccc2c(c1)OCO2)C(=O)OC,-6.34%,
Cc1ccc(OCC(=O)N2CCN(C(=O)c3ccncc3)CC2)cc1,338% [at 10 µM],
COC(=O)Nc1nc2ccc(Sc3ccccc3)cc2[nH]1,-220%,
CCc1nc(N)nc(N)c1-c1ccc(Cl)cc1,-97.6%,
O=C(Nc1ccc(F)cc1)c1ccc2nc[nH]c2c1,165% [at 10 µM],
Cc1ccc2nc3cc([N+](=O)[O-])cc([N+](=O)[O-])c3cc2c1,79.4%,
C=C[C@@]1(C)CC(=O)[C@@]2(O)[C@@]3(C)[C@@H](O)CCC(C)(C)[C@@H]3[C@H](OC(=O)CCN(C)C)[C@H](OC(C)=O)[C@@]2(C)O1,,active: 39.8 µM
CC(C)(C)c1ccc(C(=O)N2CCC(=O)N([C@H](COCc3ccc(Cl)cc3)Cc3ccccc3)CC2)cc1,-145% [at 40.3 µM],
O=C(COC(=O)CCSc1ccc(Cl)cc1)NCc1ccccc1Cl,177% [at 10 µM],
CC(=O)Oc1cc(-c2coc3cc(OC(C)=O)c(OC(C)=O)c(OC(C)=O)c3c2=O)cc(OC(C)=O)c1OC(C)=O,-65.6%,

Compound,cytoprotection (ATP increase),Potency
COCCn1c(N2CCN(c3ccccc3)CC2)nc2c1c(=O)n(C)c(=O)n2C,,active: 2 µM
C=CCOc1ccc(Cl)cc1CNC1CCCC1,,active: 22.4 µM
NC(=O)N/N=C/c1c(Sc2nnnn2-c2ccccc2)nc2ccccn2c1=O,,active: 4.47 µM
CC(=C(CCOP(=O)(O)O)SC(=O)c1ccccc1)N(C=O)Cc1cnc(C)nc1N,-65.3%,
O=c1cc(CN2CCN(c3ccccc3F)CC2)c2cc3c(cc2o1)CCCC3,,active: 1.12 µM
C=C1C2CC[C@]3(CCC4[C@@]5(C)CCC[C@@]4(CN(CCO)C5)[C@@H]3C2)[C@@H]1O (some centres not stated),-48.5%,
O=C(NCc1ccccc1)OCCN1CCN(Cc2ccccc2)CCC1=O,-54%,
COc1ccccc1N1CCN(C(c2cccs2)C(C)NC(=O)c2cccnc2)CC1 (configuration not stated),,active: 5.62 µM
COc1ccc(Nc2ncnc3c2cnn3-c2cccc(C)c2)cc1OC,156% [at 10 µM],
C=CCC(C)(O)c1ccccc1 (configuration not stated),12.2%,
NC(=O)C1CCN(CCC(=O)Nc2ccc(Br)cc2)CC1,,active: 0.112 µM
C/C=C(/C(=C/C)c1ccc(O)cc1)c1ccc(O)cc1,-133%,
Cc1nc2ccc(NC(=O)c3ccc(Cl)c([N+](=O)[O-])c3)cc2s1,293% [at 10 µM],
O=C(Nc1nc(NC(=O)c2ccco2)n(-c2ccccc2)n1)c1ccccc1,,active: 3.98 µM
CC1=C(CO)C(=O)OC([C@@H](C)C2CC[C@H]3C4C[C@H]5O[C@]56[C@@H](O)C=CC(=O)[C@]6(C)C4CC[C@]23C)C1 (some centres not stated),,active: 3.55 µM
CCCCCC(=O)/C=C/C=C\CCCCCCCC(=O)O,-56.6%,
O=c1n(CCCN2CCN(c3cccc(Cl)c3)CC2)nc2ccccn12,-40.6%,
O=C(c1ccc(F)cc1)C(CN1CCOCC1)c1ccccc1 (configuration not stated),,active: 31.6 µM
CCOC(=O)CNC(=O)O[C@@H]1C(=O)c2cc(OC)ccc2O[C@H]1c1cccc(OC)c1,-41.6%,
COc1ccc(-c2c(C)cc3oc(=O)cc(-c4ccccc4)c3c2C)cc1C=O,71.8%,
CCN(CC)S(=O)(=O)c1ccc(F)c(C(=O)NCCC(C)C)c1,299% [at 10 µM],
